## Microarray screen: hit calls

Targets (5′ to 3′):
T1: TPP riboswitch RNA three-way junction, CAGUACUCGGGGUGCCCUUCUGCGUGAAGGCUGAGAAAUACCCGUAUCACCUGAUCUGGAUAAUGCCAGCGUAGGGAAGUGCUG. About 24,000 compounds screened, about 160 hits.
T2: PreQ1 riboswitch RNA pseudoknot, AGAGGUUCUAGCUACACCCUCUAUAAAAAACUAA. From B. subtilis. About 24,000 compounds screened, about 170 hits.
T3: SAM-II riboswitch RNA pseudoknot, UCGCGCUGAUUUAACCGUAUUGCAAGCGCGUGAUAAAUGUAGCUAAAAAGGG. About 21,000 compounds screened, about 200 hits.

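Each compound is printed as two spots on a slide made to bind it covalently, so it has no test concentration; the read-out is fluorescence of the bound, labelled oligonucleotide. The data file lists only calls. An earlier report of the laboratory on the PreQ1, TPP and SAM-II riboswitches (doi:10.1038/s41467-019-09493-3) used 1 µM RNA for 2 h and required a mean Z-score above 3 (spot signal-to-noise against the whole library), a score well above that on a control array, and duplicate spots agreeing (coefficient of variation under 100); it then also set aside compounds that hit other targets, which this list keeps. The cut-offs behind this list may differ. These are primary screening calls, not affinities; a compound without a hit may have attached poorly or may still bind in solution.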 “1” means called a hit, “0” means screened and not called a hit. Compounds were drawn at random from those tested, without regard to their results. A dash means that no call is listed here.

Compound,T1,T2,T3
C=CCNc1oc(COc2ccc(OC)cc2)nc1C#N,0,0,0
Cc1[nH]c(C=C2C(=O)Nc3ccc(S(=O)(=O)Cc4c(Cl)cccc4Cl)cc32)c(C)c1C(=O)N1CCC[C@H]1CN1CCCC1,0,0,0
COc1ccccc1CNc1nc2nc(C)cc(C)n2n1,0,0,-
CCOC(=O)c1cnn(-c2cc(C)nc3c(C)c(-c4ccccc4)nn23)c1N,0,0,-
CNc1cc(-c2ccc(-c3nnc(N)s3)cc2)c2cc[nH]c2n1,0,1,0
COCC(=O)N1CCCN(Cc2c(CO)cnc(C)c2O)CC1,0,0,0
COc1ccc([C@@H]2CN(C(=O)c3ccc(N)nc3)[C@@H]3C4CCN(CC4)[C@@H]32)cc1,0,0,0
Brc1ccc2nc(-c3ccccn3)c(Nc3ccccc3)n2c1,0,0,0
Cc1cc(C)c2c(N)c(C(=O)c3ccc(Br)cc3)sc2n1,0,0,0
CNc1oc(-c2ccco2)nc1S(=O)(=O)c1ccc(C)cc1,0,0,-
N[C@H]1CC[C@@H](n2cc(C(=O)N3CCc4[nH]nc(C5CC5)c4C3)nn2)CC1,0,0,0
Cc1ccc(C(=O)C2=C(O)C(=O)N(CC(C)O)C2c2ccc(C(C)C)cc2)cc1 (configuration not stated),0,0,0
O=C1C2C3C=CC(CC3)C2S(=O)(=O)C2C3C=CC(CC3)C12 (configuration not stated),0,0,0
CCc1cc(NCC2CCCNC2)n2nc(C)c(C)c2n1 (configuration not stated),0,0,0
Cn1cccc1C1C(C#N)=C(N)OC2=C1C(=O)CC(C)(C)C2 (configuration not stated),0,0,0
COc1cccc(CNC2CN3CCC2CC3)c1 (configuration not stated),0,0,0
CCCc1ccc(CN2C[C@H](NC(=O)CO)[C@@H](C3CC3)C2)o1,0,0,0
Cc1ccc(NC(=O)c2nccnc2CO)c(C)c1,0,0,0
Cc1ccc(C(=O)Oc2ccccc2NC2=NS(=O)(=O)c3ccccc32)cc1,0,0,0
O=C(O)CCNC(=O)c1ccc(NN=C2C=CC(=O)C(C(=O)O)=C2)cc1,0,0,0
Cc1ccc(C(=O)Nc2ccc(CN3CCN(C)CC3)c(C(F)(F)F)c2)cc1C#Cc1cnc2[nH]ncc2c1,0,0,0
c1nc(NCCN2CCOCC2)c2c3c(sc2n1)CCCC3,0,0,0
Cc1cccc(-c2noc(-c3cccnc3NC3CCCCC3)n2)c1,0,0,-
O=C(CCN(CCO)Cc1ccccc1)Nc1ccccc1,0,0,0
Cc1ccc(S(=O)(=O)c2nc(-c3ccc(F)cc3)oc2NC2CC2)cc1,0,0,-
COC(=O)C1=C(N)OC2=C(C(=O)CCC2)C1c1ccccc1OCc1ccccc1F (configuration not stated),0,0,0
COc1ccccc1-n1cnc2cc(NCc3cccc(OC)c3OC)ccc21,0,0,0
Cc1cc(C)cc(NC(=O)c2nnn(Cc3cccc(Br)c3)c2N)c1,0,0,0
CCCCCCCCCCCCCCCC(=O)O[C@@H]1[C@@H](O)[C@@H](O)[C@@H]([C@H](NC(=O)[C@@H]2C[C@@H](CCC)CN2C)[C@H](C)Cl)O[C@@H]1SC.Cl,0,0,1
C[C@H](Cn1cnc2c(N)ncnc21)OCP(=O)(O)O,0,0,0
Cn1nc2cccc(NC(=O)NCC(CO)Cc3ccsc3)c2n1 (configuration not stated),0,0,0
COc1ccc(SCCn2ccnc2-c2cc3n(n2)CCCNC3)cc1,0,0,0
Cc1ccc(C)c2c(O)cc(CNC(CCn3cncn3)c3ccccc3)nc12 (configuration not stated),0,0,0
CCc1cc(N2CCC(NCCNc3ccncc3C)CC2)nc(C)n1,0,0,0
Nc1cc(Cl)ccc1-c1ccn[nH]1,0,0,0
C=CC(=O)Nc1cc2c(Nc3ccc(F)c(Cl)c3)ncnc2cc1OCCCN1CCOCC1,0,0,0
Nc1c(C(=O)Nc2ccc(Cl)cc2)nnn1Cc1cccc(F)c1,0,0,0
CC1=C(c2cccc(Cl)c2)S(=O)(=O)N=C1NCCc1ccccc1,0,0,-
COCCNc1nc2c(-c3cccc(Br)c3)nnn2c2ccccc12,0,0,0
O=C(CCC(=O)NCCCO)NCCCO,0,0,0
Cc1nc(N)nc(C)c1CC(=O)N(C)Cc1csc(-c2ccccc2)n1,0,0,0
Cc1ccc(N2CCC(N[C@@H]3CC[C@@H]3NC(=O)Cc3ccccc3F)CC2)cc1,0,0,0
COc1cc(C2CC(=O)Nc3nc(N)[se]c32)ccc1O (configuration not stated),0,0,0
Cc1ccc(Nc2nc3ccccc3c3nnc(C)n23)c(C)c1,0,0,-
CCc1nc2ccccc2n1CC(O)COc1ccc(C(=O)O)cc1 (configuration not stated),0,0,0
Cc1cc(C)nc(Nc2ccccc2Br)n1,0,0,0
Cc1ccc(Nc2cc(N3CCN(S(=O)(=O)c4ccc(C)c(C)c4)CC3)nc(C)n2)cc1,0,0,-
Cc1ccc2oc(-c3ccccc3)cc(=[NH+]CCCO)c2c1,0,0,0
Nc1nnc(CCCNC(=O)c2ccccc2N2CCOCC2)s1,0,0,0
CC1(C)C(=O)N(CCN2CCC(C(=O)c3ccc(F)cc3)CC2)c2ccccc21,0,0,0
Cc1ccc(C(C)C)cc1OCC(O)Cn1c(C)nc2ccccc21 (configuration not stated),0,0,0
O=C(Nc1ccc(OC(F)(F)F)cc1)c1sccc1NCc1ccnc2ccccc12,0,0,0
Cc1cc2c(c(=O)o1)C(c1cccs1)C(C#N)=C(N)O2 (configuration not stated),0,0,0
CCCc1cc(NCCN2CCOCC2)n2c(nc3ccccc32)c1C#N,0,0,0
C[C@]12CCC(=O)C=C1CC[C@@H]1[C@@H]2[C@@H](O)C[C@@]2(C)[C@H]1CC[C@]2(O)C(=O)CO,0,0,0
COc1ccc(-c2cc(-c3cccs3)nc3sc(C(=O)NC(C)C)c(N)c23)cc1,0,0,0
Cc1ccc2[nH]cc(C(O)CN3CCOCC3)c2c1 (configuration not stated),0,0,-
C=C(C)CSc1nc(=O)cc(N)n1-c1ccc(F)cc1,0,0,0
CCCS(=O)c1ccc2nc(NC(=O)OC)[nH]c2c1 (configuration not stated),0,0,0
OC(CN1CCN(c2ccc(F)cc2)CC1)c1ccc2cc[nH]c2c1 (configuration not stated),0,0,0
CC1CCN(Cc2ccc(C(=O)N3CCOC4(CNCCOC4)C3)o2)CC1 (configuration not stated),0,0,0
COc1cccc(N2CC(c3nc4ccccc4n3CC(O)COc3ccccc3Cl)CC2=O)c1 (configuration not stated),0,0,-
CC1CCC(Nc2c(-c3ccc(OC(C)C)cc3)[nH]c3c(C#N)cnn23)CC1 (configuration not stated),0,0,-
O=C1c2cccnc2CN1CC(CO)Cc1cccs1 (configuration not stated),0,0,0
O=c1c(O)cccc2cc(O)c(O)c(O)c12,0,0,0
COc1ccc(-c2noc(NCc3ccc(C)cc3)n2)cc1OC,0,0,-
CCCn1cc(C(=O)N2CCNCC2C(=O)N2CCOCC2)c(C)n1 (configuration not stated),0,0,0
O=C(C1CCN(Cc2ccco2)CC1)N1C[C@H]2CCC[C@@]2(CO)C1,0,0,0
CCc1nc(C)c([C@H]2CN(C)C[C@@H]2C(=O)N2CCC(O)CC2)[nH]1,0,0,0
CC12CNCC(C)(CNC1)C2=NO,0,0,0
N#CC1=C(N)Oc2c(c(=O)oc3ccccc23)C1c1cc(Br)cs1 (configuration not stated),0,0,0
CCCn1c(=O)c(C(=O)Nc2ccccc2N)c(O)c2ccccc21,0,0,0
CCCCCCOC(=O)N=C(N)c1ccc(NCc2nc3cc(C(=O)N(CCC(=O)OCC)c4ccccn4)ccc3n2C)cc1,0,0,0
COC(=O)c1cc(Nc2cc(C)c3c(O)cccc3n2)cc(C(=O)OC)c1,0,0,0
O=c1nc(O)ccn1C1CC(O)C(CO)O1 (configuration not stated),0,0,0

6 of the entries, repeated:

Compound,T1,T2,T3
COc1ccc(-c2noc(NCc3ccc(C)cc3)n2)cc1OC,0,0,-
CCc1nc(C)c([C@H]2CN(C)C[C@@H]2C(=O)N2CCC(O)CC2)[nH]1,0,0,0
COC(=O)c1cc(Nc2cc(C)c3c(O)cccc3n2)cc(C(=O)OC)c1,0,0,0
CCCc1ccc(CN2C[C@H](NC(=O)CO)[C@@H](C3CC3)C2)o1,0,0,0
N[C@H]1CC[C@@H](n2cc(C(=O)N3CCc4[nH]nc(C5CC5)c4C3)nn2)CC1,0,0,0
O=C(CCC(=O)NCCCO)NCCCO,0,0,0

Source: the ROBIN nucleic acid binder screens (doi:10.1002/anie.202211358).